In PMC10933316:
No constants are given. Whether binding was seen depends on the method and setting. In cells and extracts the contact can be indirect. These calls come from enrichment with a bait or labelling near it, and not all partners need be listed.

Chains of the proteins cited; added tags and fusions are not shown.
UniProt Q9D4H8: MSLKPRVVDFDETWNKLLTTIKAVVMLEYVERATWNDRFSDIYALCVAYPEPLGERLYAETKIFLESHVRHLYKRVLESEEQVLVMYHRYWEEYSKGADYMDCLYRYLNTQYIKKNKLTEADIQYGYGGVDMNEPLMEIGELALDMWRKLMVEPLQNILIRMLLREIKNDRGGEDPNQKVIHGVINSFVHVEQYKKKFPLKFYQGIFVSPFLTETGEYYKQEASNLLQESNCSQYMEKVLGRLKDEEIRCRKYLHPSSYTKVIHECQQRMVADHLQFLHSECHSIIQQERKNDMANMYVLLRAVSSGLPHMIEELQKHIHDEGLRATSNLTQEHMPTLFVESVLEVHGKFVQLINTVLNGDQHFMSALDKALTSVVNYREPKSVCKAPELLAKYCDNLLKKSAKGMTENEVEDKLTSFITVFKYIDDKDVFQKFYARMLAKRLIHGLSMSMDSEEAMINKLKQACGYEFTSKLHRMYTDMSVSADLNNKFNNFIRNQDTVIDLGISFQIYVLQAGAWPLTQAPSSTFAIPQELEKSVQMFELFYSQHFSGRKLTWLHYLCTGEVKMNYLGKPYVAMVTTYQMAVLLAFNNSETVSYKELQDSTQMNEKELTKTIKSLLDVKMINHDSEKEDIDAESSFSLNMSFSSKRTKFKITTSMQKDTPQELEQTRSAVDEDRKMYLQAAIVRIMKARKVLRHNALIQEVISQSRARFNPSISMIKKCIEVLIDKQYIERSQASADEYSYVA
UniProt Q60737: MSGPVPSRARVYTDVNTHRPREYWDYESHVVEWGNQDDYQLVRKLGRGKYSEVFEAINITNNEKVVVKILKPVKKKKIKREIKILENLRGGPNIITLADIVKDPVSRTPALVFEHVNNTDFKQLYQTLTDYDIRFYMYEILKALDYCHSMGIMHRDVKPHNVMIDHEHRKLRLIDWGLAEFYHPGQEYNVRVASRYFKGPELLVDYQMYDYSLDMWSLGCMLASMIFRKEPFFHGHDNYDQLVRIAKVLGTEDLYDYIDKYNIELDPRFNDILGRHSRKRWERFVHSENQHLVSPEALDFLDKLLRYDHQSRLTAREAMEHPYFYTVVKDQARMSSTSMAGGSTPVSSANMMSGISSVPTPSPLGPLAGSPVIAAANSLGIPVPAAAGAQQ
UniProt Q61188: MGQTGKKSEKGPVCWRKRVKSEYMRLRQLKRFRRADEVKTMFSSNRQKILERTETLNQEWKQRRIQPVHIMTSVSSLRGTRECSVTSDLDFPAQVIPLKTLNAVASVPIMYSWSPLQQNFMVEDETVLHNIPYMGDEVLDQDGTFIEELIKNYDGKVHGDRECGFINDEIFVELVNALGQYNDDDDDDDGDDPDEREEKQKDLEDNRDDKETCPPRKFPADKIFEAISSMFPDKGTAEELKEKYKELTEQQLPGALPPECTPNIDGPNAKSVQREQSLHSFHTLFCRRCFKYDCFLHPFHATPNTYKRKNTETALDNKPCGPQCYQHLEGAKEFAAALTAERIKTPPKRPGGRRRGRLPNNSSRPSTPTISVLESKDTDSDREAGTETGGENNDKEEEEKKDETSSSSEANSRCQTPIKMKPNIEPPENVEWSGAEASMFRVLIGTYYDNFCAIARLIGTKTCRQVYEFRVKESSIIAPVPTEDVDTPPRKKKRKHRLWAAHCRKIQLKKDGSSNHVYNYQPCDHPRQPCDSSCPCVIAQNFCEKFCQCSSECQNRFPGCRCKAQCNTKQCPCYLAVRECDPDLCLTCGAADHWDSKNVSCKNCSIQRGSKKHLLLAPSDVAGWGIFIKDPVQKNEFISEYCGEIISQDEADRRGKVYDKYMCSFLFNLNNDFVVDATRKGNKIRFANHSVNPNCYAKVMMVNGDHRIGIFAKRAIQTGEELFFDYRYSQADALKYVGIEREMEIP
UniProt O09106: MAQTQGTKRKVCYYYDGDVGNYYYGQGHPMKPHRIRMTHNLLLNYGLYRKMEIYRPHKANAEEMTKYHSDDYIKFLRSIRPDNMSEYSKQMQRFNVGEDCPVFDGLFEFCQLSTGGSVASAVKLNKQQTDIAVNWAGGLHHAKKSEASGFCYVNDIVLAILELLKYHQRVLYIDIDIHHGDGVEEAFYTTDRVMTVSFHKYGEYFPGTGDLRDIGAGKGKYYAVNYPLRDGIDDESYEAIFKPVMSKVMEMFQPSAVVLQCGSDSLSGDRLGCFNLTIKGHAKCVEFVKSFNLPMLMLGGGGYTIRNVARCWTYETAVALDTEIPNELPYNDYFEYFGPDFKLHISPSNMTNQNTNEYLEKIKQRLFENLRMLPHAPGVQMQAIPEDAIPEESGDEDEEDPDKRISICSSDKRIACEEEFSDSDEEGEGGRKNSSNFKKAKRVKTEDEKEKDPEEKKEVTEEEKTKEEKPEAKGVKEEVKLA
UniProt P54276: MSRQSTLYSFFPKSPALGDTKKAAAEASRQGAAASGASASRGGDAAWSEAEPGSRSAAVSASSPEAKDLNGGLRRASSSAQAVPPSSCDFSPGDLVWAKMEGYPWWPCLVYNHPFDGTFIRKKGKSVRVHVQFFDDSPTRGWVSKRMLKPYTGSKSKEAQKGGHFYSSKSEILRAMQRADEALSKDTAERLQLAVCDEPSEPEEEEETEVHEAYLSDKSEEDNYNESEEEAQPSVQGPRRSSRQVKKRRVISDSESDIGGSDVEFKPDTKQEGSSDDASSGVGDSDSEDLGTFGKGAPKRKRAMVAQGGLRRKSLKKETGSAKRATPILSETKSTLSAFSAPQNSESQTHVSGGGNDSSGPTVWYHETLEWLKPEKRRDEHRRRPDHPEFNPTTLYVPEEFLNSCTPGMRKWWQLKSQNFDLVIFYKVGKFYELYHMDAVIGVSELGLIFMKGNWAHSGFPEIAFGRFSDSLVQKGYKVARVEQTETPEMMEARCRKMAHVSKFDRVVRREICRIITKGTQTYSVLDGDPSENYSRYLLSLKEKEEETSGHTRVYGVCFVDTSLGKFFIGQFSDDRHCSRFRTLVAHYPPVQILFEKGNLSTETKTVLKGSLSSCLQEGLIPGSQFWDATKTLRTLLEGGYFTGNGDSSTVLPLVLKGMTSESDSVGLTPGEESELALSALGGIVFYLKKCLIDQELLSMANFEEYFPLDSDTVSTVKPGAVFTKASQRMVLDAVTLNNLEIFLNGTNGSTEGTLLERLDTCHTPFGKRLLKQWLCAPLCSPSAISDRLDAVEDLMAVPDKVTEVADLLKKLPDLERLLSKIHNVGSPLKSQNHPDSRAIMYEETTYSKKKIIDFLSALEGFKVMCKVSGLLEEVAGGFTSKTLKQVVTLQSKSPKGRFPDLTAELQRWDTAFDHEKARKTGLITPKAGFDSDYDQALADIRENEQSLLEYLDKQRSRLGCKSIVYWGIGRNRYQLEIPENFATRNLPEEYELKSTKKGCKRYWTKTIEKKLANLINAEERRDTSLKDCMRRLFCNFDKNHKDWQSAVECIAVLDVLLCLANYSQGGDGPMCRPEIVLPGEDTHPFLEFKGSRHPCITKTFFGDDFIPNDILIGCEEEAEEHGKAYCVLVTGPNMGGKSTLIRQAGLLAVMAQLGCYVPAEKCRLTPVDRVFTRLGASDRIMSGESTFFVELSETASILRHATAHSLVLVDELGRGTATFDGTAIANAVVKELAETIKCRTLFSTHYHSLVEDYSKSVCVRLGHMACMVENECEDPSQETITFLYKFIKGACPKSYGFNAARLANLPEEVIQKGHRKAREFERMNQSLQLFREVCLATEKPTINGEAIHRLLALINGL
UniProt Q9R190: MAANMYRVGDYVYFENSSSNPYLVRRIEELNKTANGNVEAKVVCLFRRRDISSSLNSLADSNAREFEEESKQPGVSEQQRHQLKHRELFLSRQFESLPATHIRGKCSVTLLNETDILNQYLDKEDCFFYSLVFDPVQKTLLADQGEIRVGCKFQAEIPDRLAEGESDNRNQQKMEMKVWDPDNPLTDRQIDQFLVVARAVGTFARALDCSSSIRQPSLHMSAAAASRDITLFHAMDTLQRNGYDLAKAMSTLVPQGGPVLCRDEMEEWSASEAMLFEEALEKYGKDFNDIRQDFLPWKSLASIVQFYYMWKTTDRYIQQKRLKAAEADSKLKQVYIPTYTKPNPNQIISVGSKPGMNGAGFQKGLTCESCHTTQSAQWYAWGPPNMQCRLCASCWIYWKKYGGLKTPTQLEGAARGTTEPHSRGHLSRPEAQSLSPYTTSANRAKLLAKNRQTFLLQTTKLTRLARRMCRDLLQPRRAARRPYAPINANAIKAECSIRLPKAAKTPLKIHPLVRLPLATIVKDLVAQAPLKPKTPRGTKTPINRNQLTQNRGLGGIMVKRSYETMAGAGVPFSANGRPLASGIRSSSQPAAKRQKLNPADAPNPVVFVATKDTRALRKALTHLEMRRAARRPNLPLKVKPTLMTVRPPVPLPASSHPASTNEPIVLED
UniProt P60122: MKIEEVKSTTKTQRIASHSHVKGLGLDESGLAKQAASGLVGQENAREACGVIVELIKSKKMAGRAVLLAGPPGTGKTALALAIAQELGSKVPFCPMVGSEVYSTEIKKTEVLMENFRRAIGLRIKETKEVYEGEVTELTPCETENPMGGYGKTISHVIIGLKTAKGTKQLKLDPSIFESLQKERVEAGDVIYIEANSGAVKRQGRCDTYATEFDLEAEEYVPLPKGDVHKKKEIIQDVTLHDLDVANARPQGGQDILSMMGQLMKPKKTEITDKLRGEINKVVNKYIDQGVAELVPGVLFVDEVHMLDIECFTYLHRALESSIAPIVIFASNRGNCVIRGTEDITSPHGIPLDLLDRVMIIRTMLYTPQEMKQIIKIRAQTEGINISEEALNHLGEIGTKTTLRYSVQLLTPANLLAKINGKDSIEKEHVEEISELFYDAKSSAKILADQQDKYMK
UniProt Q9WTM5: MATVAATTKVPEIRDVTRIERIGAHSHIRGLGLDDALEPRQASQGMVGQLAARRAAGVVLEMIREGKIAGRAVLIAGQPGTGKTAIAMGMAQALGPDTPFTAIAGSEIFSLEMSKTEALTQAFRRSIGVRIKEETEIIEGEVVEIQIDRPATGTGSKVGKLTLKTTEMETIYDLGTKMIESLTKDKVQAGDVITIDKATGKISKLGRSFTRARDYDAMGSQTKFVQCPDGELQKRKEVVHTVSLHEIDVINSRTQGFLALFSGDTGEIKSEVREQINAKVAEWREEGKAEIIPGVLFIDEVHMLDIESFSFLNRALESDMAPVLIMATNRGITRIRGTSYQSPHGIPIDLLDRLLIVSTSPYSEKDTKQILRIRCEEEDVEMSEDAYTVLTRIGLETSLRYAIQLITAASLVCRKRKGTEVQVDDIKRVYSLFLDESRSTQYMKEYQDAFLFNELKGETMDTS
UniProt Q02053: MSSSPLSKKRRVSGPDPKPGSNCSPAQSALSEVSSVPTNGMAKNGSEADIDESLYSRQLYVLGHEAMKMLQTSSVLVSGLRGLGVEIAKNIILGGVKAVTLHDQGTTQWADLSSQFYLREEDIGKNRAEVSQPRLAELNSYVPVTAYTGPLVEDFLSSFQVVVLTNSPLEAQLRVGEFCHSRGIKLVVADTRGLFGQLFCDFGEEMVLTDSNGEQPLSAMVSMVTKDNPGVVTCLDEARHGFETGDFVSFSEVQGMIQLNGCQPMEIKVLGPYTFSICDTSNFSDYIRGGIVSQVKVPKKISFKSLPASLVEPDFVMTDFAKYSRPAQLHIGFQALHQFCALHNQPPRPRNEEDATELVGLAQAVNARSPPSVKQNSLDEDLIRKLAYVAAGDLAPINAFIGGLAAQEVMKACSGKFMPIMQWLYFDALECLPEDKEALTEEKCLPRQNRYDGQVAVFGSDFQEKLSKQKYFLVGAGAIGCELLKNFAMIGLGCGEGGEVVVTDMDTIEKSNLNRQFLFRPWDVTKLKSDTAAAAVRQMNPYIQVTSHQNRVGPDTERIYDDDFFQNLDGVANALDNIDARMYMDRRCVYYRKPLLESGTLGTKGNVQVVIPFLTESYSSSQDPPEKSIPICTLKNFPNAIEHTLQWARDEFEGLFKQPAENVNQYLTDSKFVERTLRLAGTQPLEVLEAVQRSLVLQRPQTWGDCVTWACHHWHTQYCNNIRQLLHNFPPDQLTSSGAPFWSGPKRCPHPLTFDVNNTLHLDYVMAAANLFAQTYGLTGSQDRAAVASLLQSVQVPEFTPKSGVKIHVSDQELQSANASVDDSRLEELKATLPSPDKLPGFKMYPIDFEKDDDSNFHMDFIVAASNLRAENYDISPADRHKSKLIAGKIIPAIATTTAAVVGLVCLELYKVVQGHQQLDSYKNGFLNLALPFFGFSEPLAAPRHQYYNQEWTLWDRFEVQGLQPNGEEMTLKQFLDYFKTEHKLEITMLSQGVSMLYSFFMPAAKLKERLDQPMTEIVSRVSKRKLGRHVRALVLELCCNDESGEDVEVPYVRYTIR

T1: H/F-PRAMEL7ΔN (ESC line) (mouse) (UniProt Q810Y8)
T1 sequence: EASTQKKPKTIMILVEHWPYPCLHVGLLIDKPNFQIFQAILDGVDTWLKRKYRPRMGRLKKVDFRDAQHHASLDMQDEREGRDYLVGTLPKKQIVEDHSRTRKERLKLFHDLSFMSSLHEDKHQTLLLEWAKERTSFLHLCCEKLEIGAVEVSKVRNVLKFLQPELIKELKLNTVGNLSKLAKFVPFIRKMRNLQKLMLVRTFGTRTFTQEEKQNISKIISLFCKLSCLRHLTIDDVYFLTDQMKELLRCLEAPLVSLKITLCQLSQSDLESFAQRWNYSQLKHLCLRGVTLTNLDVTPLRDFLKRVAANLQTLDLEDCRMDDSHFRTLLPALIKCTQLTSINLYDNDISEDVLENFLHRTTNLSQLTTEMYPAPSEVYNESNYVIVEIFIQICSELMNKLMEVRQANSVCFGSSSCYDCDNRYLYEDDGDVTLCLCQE

B1: SIN3A (protein, UniProt Q60520 1-1274)
chain: MKRRLDDQESPVYAAQQRRIPGSTEAFSHQHRVLAPAPPVYEAVSETMQSATGIQYSVAPNYQVSAVPQSSGSHGPAIAAVHSSHHHPTAVQPHGGQVVQSHAHPAPPVAPVQGQQQFQRLKVEDALSYLDQVKLQFGSQPQVYNDFLDIMKEFKSQSIDTPGVISRVSQLFKGHPDLIMGFNTFLPPGYKIEVQTNDMVNVTTPGQVHQIPTHGIQPQPQPPPQHPSQPSSQSAPTPAQPAPQPTAAKVSKPSQLQAHTPASQQTPPLPPYASPRSPPVQPHTPVTISLGTAPSLQNNQPVEFNHAINYVNKIKNRFQGQPDIYKAFLEILHTYQKEQRNAKEAGGNYTPALTEQEVYAQVARLFKNQEDLLSEFGQFLPDANSSVLLSKTTAEKVDSVRNDHGGTVKKPQLNNKPQRPSQNGCQIRRHSGTGATPPVKKKPKLMSLKESSMADASKHGVGTESLFFDKVRKALRSAEAYENFLRCLVIFNQEVISRAELVQLVSPFLGKFPELFNWFKNFLGYKESVHLESFPKERATEGIAMEIDYASCKRLGSSYRALPKSYQQPKCTGRTPLCKEVLNDTWVSFPSWSEDSTFVSSKKTQYEEHIYRCEDERFELDVVLETNLATIRVLEAIQKKLSRLSAEEQAKFRLDNTLGGTSEVIHRKALQRIYADKAADIIDGLRKNPSIAVPIVLKRLKMKEEEWREAQRGFNKVWREQNEKYYLKSLDHQGINFKQNDTKVLRSKSLLNEIESIYDERQEQATEENAGVPVGPHLSLAYEDKQILEDAAALIIHHVKRQTGIQKEDKYKIKQIMHHFIPDLLFAQRGDLSDVEEEEEEEMDVDEATGAPKKHNGVGGSPPKSKLLFSNTAAQKLRGMDEVYNLFYVNNNWYIFMRLHQILCLRLLRICSQAERQIEEENREREWEREVLGIKRDKSDSPAIQLRLKEPMDVDVEDYYPAFLDMVRSLLDGNIDSSQYEDSLREMFTIHAYIAFTMDKLIQSIVRQLQHIVSDEVCVQVTDLYLAENNNGATGGQLNSQTSRSLLESAYQRKAEQLMSDENCFKLMFIQSQGQVQLTVELLDTEEENSDDPVEAERWSDYVERYMSSDTTSPELREHLAQKPVFLPRNLRRIRKCQRGREQQEKEGKEGNSKKTMENVESLDKLECRFKLNSYKMVYVIKSEDYMYRRTALLRAHQSHERVSKRLHQRFQAWVDKWTKEHVPREMAAETSKWLMGEGLEGLVPCTTTCDTETLHFVSINKYRVKYGTVFKAP
B2: JARID2 (protein, UniProt Q62315 1-1234)
chain: MSKERPKRNIIQKKYDDSDGIPWSEERVVRKVLYLSLKEFKNAQKRQHGEGLAGSLKAVNGLLGNAQAKALGPASEQSENEKDDASQVSSTSNDVSSSDFEEGPSRKRPRLQAQRKFAQSQPNSPSTTPVKIVEPLLPPPATQISDLSKRKPKTEDFLTFLCLRGSPALPNSMVYFGSSQDEEDVEEEDDETEDVKATTNNASSSCQSTPRKGKTHKHVHNGHVFNGSSRSAREKEPAHKHRSKEATPGKEKHSEPRADSRREQASGAQPTAASAAASSAKGLAANHQPPPSHRSAQDLRKQVSKVNGVTRMSSLGAGTNSAKKIREVRPSPSKTVKYTATVTKGTVTYTKAKRELVKETKPNHHKPSSAVNHTISGKTESSNAKTRKQVLSLGGASKSTGPAASGLKASSRLNPKSCTKEVGGRQLREGLRNSKRRLEEAQQVDKPQSPPKKMKGVAGNAEAPGKKASAASGEKSLLNGHVKKEVPERSLERNRPKRAAAGKNMLGKQAHGKTEGTPCENRSTSQPESSHKPHDPQGKPEKGSGKSGWAAMDEIPVLRPSAKEFHDPLIYIESVRAQVEKYGMCRVIPPPDWRPECKLNDEMRFVTQIQHIHKLGRRWGPNVQRLACIKKHLRSQGITMDELPLIGGCELDLACFFRLINEMGGMQQVTDLKKWNKLADMLRIPKTAQDRLAKLQEAYCQYLLSYDSLSPEEHRRLEKEVLMEKEILEKRKGPLEGHTESDHHKFHSLPRFEPKNGLVHGVTPRNGFRSKLKEVGRAPLKTGRRRLFAQEKEVVKEEEEDKGVLNDFHKCIYKGRSVSLTTFYRTARNIMNMCFSKEPAPAEIEQEYWRLVEEKDCHVAVHCGKVDTNTHGSGFPVGKSEPFSRHGWNLTVLPNNTGSILRHLGAVPGVTIPWLNIGMVFSTSCWSRDQNHLPYIDYLHTGADCIWYCIPAEEENKLEDVVHTLLQGNGTPGLQMLESNVMISPEVLCKKGIKVHRTVQQSGQFVVCFPGSFVSKVCCGYNVSETVHFATTQWTSMGFETAKEMKRRHIAKPFSMEKLLYQIAQAEAKKENGPTLSTISALLDELRDTELRQRRLLFEAGLHSSARYGSHDGNSTVADGKKKPRKWLQLETSERRCQICQHLCYLSMVVQENENVVFCLECALRHVEKQKSCRGLKLMYRYDEEQIISLVNQICGKVSGKHGGIENCLNKPTPKRGPRKRATVDVPPSRLPSS
B3: ALDH2 (protein, UniProt P47738 20-519)
chain: SAAATSAVPAPNHQPEVFCNQIFINNEWHDAVSRKTFPTVNPSTGEVICQVAEGNKEDVDKAVKAARAAFQLGSPWRRMDASDRGRLLYRLADLIERDRTYLAALETLDNGKPYVISYLVDLDMVLKCLRYYAGWADKYHGKTIPIDGDFFSYTRHEPVGVCGQIIPWNFPLLMQAWKLGPALATGNVVVMKVAEQTPLTALYVANLIKEAGFPPGVVNIVPGFGPTAGAAIASHEGVDKVAFTGSTEVGHLIQVAAGSSNLKRVTLELGGKSPNIIMSDADMDWAVEQAHFALFFNQGQCCCAGSRTFVQENVYDEFVERSVARAKSRVVGNPFDSRTEQGPQVDETQFKKILGYIKSGQQEGAKLLCGGGAAADRGYFIQPTVFGDVKDGMTIAKEEIFGPVMQILKFKTIEEVVGRANDSKYGLAAAVFTKDLDKANYLSQALQAGTVWINCYDVFGAQSPFGGYKMSGSGRELGEYGLQAYTEVKTVTVKVPQKNS
B4: MCM4 (protein, UniProt P49717 1-862)
chain: MSSPASTPSRRSSRRGRVTPTQSLRSEESRSSPNRRRRGEDSSTGELLPMPTSPGADLQSPPAQNALFSSPPQMHSLAIPLDFDVSSPLTYGTPSSRVEGTPRSGVRGTPVRQRPDLGSARKGLQVDLQSDGAAAEDIVPSEQSLGQKLVIWGTDVNVATCKENFQRFLQCFTDPLAKEEENVGIDITQPLYMQQLGEINITGEPFLNVNCEHIKSFSKNLYRQLISYPQEVIPTFDMAVNEIFFDRYPDSILEHQIQVRPFNALKTKSMRNLNPEDIDQLITISGMVIRTSQLIPEMQEAFFQCQVCAHTTRVEIDRGRIAEPCSCVHCHTTHSMALIHNRSFFSDKQMIKLQESPEDMPAGQTPHTIVLFAHNDLVDKVQPGDRVNVTGIYRAVPIRVNPRVSNVKSVYKTHIDVIHYRKTDAKRLHGLDEEAEQKLFSEKRVKLLKELSRKPDIYERLASALAPSIYEHEDIKKGILLQLFGGTRKDFSHTGRGKFRAEINILLCGDPGTSKSQLLQYVYNLVPRGQYTSGKGSSAVGLTAYVMKDPETRQLVLQTGALVLSDNGICCIDEFDKMNESTRSVLHEVMEQQTLSIAKAGIICQLNARTSVLAAANPIESQWNPKKTTIENIQLPHTLLSRFDLIFLMLDPQDEAYDRRLAHHLVSLYYQSEEQVEEEFLDMAVLKDYIAYAHSTIMPRLSEEASQALIEAYVNMRKIGSSRGMVSAYPRQLESLIRLAEAHAKVRFSNKVEAIDVEEAKRLHREALKQSATDPRTGIVDISILTTGMSATSRKRKEELAEALRKLILSKGKTPALKYQQLFEDIRGQSDTAITKDMFEEALRALADDDFLTVTGKTVRLL
B5: NOP2 (protein, UniProt Q922K7 1-793)
chain: MGRKLDPTKKEKRGPGRKARKQKGAETELVRFLPAAGDENSKRLSSRARKRAAKRRAGSVDVPKPNKSPGIKTLPGELSKGAVQARGKKRPAPIQNSDGDEEEDSGEDDVVTQGDLWGSEDSDEDMVDDYGAASNSEDEEEKLLPIERAALKQKAQDATAGVLWNEEDTDEDEDDDGVSPESHPRKDDKAEGDLQINVEDEEAFVLPPAGETDQDGQAPDLQRVHKRIQDIVGVLRDFGAQREEGRSRAEYLSRLQKDLATYYSYGDFLLSKLMELFPLSELIEFLEANEVPRPITLRTNTLKTRRRDLAQLLINRGVNLDPLGKWSKSGLVVYDSSVPIGATPEYLAGHYMLQGASSMLPVMALAPQEHERILDMCCAPGGKTSYIAQLMKNTGVILANDANADRLKSVVGNLHRLGVTNTIISHYDGRQFPKVVGGFDRVLLDAPCSGTGVISKDPAVKTNKDEKDIQRCAHLQKELLLSAIDSVNAASKTGGYLVYCTCSITVEENEWVVDYALKKRNVRLVPTGLDFGQEGFTRFQARRFHPTLRSTRRFYPHTHNMDGFFIAKFKKFSNSIPQPHAGNSAAATPTEPDLKDQVTPKSENGSQPTKKARGAVKAKQQLLRQPHSKKPFQKLNGIAKGPGLSTEPSVPDAQVSTRPSQSAGNADVNSKRKRSEKLKQRGPKWKPSKEAAVPKPSAPSRVEDSGTPVPTPSEIRAAPRPKDCAPSLGKAKKKQKGKQQLAQQPANGAAPLKEDAVSKGPSAPFVSPHSSTRPPPAKRRKSMTKGNSQPLLS

How the values were obtained:
[1] = target: T1, H/F-PRAMEL7ΔN (ESC line) (mouse); assay: affinity purification with mass spectrometry; HA-IP (anti-HA magnetic beads, overnight, 4 °C) from MNase-treated extracts (150 mM NaCl) of ESC + H/F-PRAMEL7WT, ESC + H/F-PRAMEL7ΔN and parental ESCs; on-bead tryptic digestion, LC-MS/MS; two independent experiments
[2] = target: Cullin2 (CUL2), endogenous in mouse ESCs (mouse (endogenous in ESCs)) (UniProt Q9D4H8); assay: affinity purification with mass spectrometry; CUL2-chromatin-IP: DSP-crosslinked, MNase-digested chromatin of ESC + H/F-PRAMEL7WT against parental ESCs, Cullin2 antibody and Dynabeads protein A, LC-MS/MS; fold changes ≥ 3; two independent experiments

Molecule | binding [1] | binding [2]
CHD4 (from UniProt Q6PDQ2 1-1915) | binds | 
CSNK2A1 (from UniProt Q60737 1-391) | binds | 
DNA methyltransferase 1 (DNMT1) (from UniProt P13864 1-1620) | binds | binds
EZH2 (from UniProt Q61188 1-746) | binds | 
HDAC1 (from UniProt O09106 1-482) | binds | 
MSH6 (from UniProt P54276 1-1358) | binds | binds
MTA2 (from UniProt Q9R190 1-668) | binds | 
NUMA1 (from UniProt E9Q7G0 1-2094) | binds | binds
RUVBL1 (from UniProt P60122 1-456) | binds | 
RUVBL2 (from UniProt Q9WTM5 1-463) | binds | 
TDH (mouse (endogenous in ESCs)) | binds | 
UBA1 (from UniProt Q02053 1-1058) | binds | binds
B1 | binds | 
B2 | binds | 
B3 | binds | binds
B4 | binds | 
B5 | binds | binds
